Measurements reported in PubChem BioAssay AID1671195 (Yale University, 2021).
Screen: 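Knockdowns that increase or decrease uptake of fluorescent LDL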 (primary screen). Cell system: human Huh7 hepatoma cells. Reagent: siRNA pool against human genes, 18 nM. Duration: about 2 to 2.5 days of knockdown, then 8 h LDL uptake. Treatment: DiI-labelled LDL at 30 µg/ml for 8 h, in lipoprotein-deficient serum medium. Read-out: 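Per-cell DiI-LDL intensity by automated imaging; well means scaled to the plate median and given as a robust z-score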. Scale: robust z-score: higher = more LDL uptake after knockdown. Rule for the call: 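a gene counts as active if at least two replicate z-scores exceed ±2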.
The whole screen tested about 22,000 reagents; below is a part drawn at random. Of all reagents, about 1,510 (6.9%) got an active call. 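Active includes knockdowns raising or lowering LDL uptake; positive z-scores mean more uptake, negative mean less.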

| gene | robust z-score, replicate 1 | robust z-score, replicate 2 | robust z-score, replicate 3 | Call |
| --- | --- | --- | --- | --- |
| CTSC (cathepsin C) | 1.96 | 0.84 | 1.25 | inactive |
| FOXC2 (forkhead box C2) | 0.141 | 0.427 | 0.167 | inactive |
| ELOVL4 (ELOVL fatty acid elongase 4) | 2.58 | 1.41 | 2.39 | active |
| SLC9C1 | 0.227 | 0.789 | 0.702 | inactive |
| LYL1 (LYL1 basic helix-loop-helix family member) | -1.48 | -1.7 | -1.9 | inactive |
| LOC440497 (retired record) | 1.41 | 1.7 | 1.11 | inactive |
| CNTNAP2 (contactin associated protein 2) | 0.409 | 1.19 | 0.232 | inactive |
| MYRF (myelin regulatory factor) | 0.459 | 0.593 | -0.297 | inactive |
| GMFG (glia maturation factor gamma) | 0.264 | 1.83 | 0.96 | inactive |
| RIOX1 (ribosomal oxygenase 1) | 1.19 | 0.756 | 1.4 | inactive |
| HGFAC (HGF activator) | -0.841 | 0.55 | -1.29 | inactive |
| HAX1 (HCLS1 associated protein X-1) | 0.144 | 0.681 | -0.928 | inactive |
| TMEM117 (transmembrane protein 117) | -0.777 | -0.819 | -1.21 | inactive |
| LOC401619 (retired record) | 4.06 | 2.32 | 1.95 | active |
| APBB1 (amyloid beta precursor protein binding family B member 1) | 0.989 | -0.475 | -0.25 | inactive |
| UBE2L6 (ubiquitin conjugating enzyme E2 L6) | 0.159 | -0.179 | -1.16 | inactive |
| KIAA1217 | 0.701 | -0.53 | 0.027 | inactive |
| FOLR1 (folate receptor alpha) | 1.28 | 0.884 | 1.15 | inactive |
| MREG (melanoregulin) | -1.63 | 0.478 | -0.263 | inactive |
| TFDP2 (transcription factor Dp-2) | 0.931 | 1.13 | 2.48 | inactive |
| PAMR1 | -0.102 | -0.285 | -0.494 | inactive |
| ACCS | 0.568 | 0.235 | -0.106 | inactive |
| SAXO1 (stabilizer of axonemal microtubules 1) | 1.49 | 3.09 | 2.09 | active |
| SLC40A1 | -0.529 | 0.0815 | -1.51 | inactive |
| PCDHB15 (protocadherin beta 15) | -0.00803 | 0.209 | 0.279 | inactive |
| TAF4B (TATA-box binding protein associated factor 4b) | 0.553 | -0.0722 | -0.397 | inactive |
| GOT2 (glutamic-oxaloacetic transaminase 2) | -0.786 | 0.624 | -0.889 | inactive |
| EIF4A1P7 (eukaryotic translation initiation factor 4A1 pseudogene 7) | 1.01 | 0.978 | 0.982 | inactive |

Records listed above with an active call, once more:
| gene | robust z-score, replicate 1 | robust z-score, replicate 2 | robust z-score, replicate 3 | Call |
| --- | --- | --- | --- | --- |
| ELOVL4 (ELOVL fatty acid elongase 4) | 2.58 | 1.41 | 2.39 | active |
| LOC401619 (retired record) | 4.06 | 2.32 | 1.95 | active |
| SAXO1 (stabilizer of axonemal microtubules 1) | 1.49 | 3.09 | 2.09 | active |
